The text below walks through data of patent US5677420A (Kyowa Hakko Kogyo Co., Ltd., priority 1995, dated 1997).

Some peptides are written in HELM: one residue between dots, names in brackets for other building blocks, links after the first $.

The nature of this data set: general procedure: Fmoc solid-phase peptide synthesis; Rink amide-resin or Rink amide-MBHA-resin (Carbiochem-Novabiochem Japan, Inc.); PyBOP/HOBt/NMM. Conditions: whole synthesis, scale 50 mg resin.
“Ac-Leu-Tyr-Arg-Lys-Met-Arg-Leu-Arg-Tyr-Pro-Val-Add-NH2” registered a crude mass of 22.3 mg and an isolated mass of 3.9 mg.
The corresponding values for “Ac-Leu-Tyr-Arg-Lys-Met-Arg-Leu-Arg-Tyr-Pro-Val-Ahp-NH2” are 20.0 mg and 5.0 mg.
The substance “Ac-Leu-Tyr-Arg-Lys-Met-Arg-Leu-Arg-Tyr-Pro-Val-Ape-NH2” had a crude mass of 36.5 mg and an isolated mass of 6.3 mg.
“Ac-Leu-Tyr-Arg-Lys-Met-Arg-Leu-Arg-Tyr-Pro-Val-Aud-NH2” showed a crude mass of 43.1 mg and an isolated mass of 13.1 mg.
The corresponding values for “C3 H7 CO-Leu-Tyr-Arg-Lys-Met-Arg-Leu-Arg-Tyr-Pro-Val-Add-NH2” are 35.3 mg and 26.4 mg.
The corresponding values for “CH3 (CH2)16 CO-Leu-Tyr-Arg-Lys-Met-Arg-Leu-Arg-Tyr-Pro-Val-Add-NH2” are 45.8 mg and 30.8 mg.
In the case of “PEPTIDE1{[ac].L.Y.R.K.M.R.L.R.Y.P.V.[Ahx].[am]}$$$$V2.0”, the crude mass was 40.0 mg and the isolated mass came to 13.9 mg.
“PEPTIDE1{[ac].L.Y.R.K.M.R.L.R.Y.P.V.[Aoc].[am]}$$$$V2.0” displayed a crude mass of 37.8 mg and an isolated mass of 10.3 mg.
